These are yes or no findings as the source states them, for the method shown. Binding seen in cells or lysates may run through a third protein. Binding can be weak; no strength is given.
Biological target: FLAG-tagged mouse UPF3A (in 3DKO HCT116 cells) (mouse) (UniProt Q3ULJ3)
Experiment: co-IP

By UniProt entry, the sequences of proteins in these tests, tags left out. Where a name states a change or a piece, a line headed by the entry shows the natural chain unless it says otherwise.
UniProt Q3ULJ3: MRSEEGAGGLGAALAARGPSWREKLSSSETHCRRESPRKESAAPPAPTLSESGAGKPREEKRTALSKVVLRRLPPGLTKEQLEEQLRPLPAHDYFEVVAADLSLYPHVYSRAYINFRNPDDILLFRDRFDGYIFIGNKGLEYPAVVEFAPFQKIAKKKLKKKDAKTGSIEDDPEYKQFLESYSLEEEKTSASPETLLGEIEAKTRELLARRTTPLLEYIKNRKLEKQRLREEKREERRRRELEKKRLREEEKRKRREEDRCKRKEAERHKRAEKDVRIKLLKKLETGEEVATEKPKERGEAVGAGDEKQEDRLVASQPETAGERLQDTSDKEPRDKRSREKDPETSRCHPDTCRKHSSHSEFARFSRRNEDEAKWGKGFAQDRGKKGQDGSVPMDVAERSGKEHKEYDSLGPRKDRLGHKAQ
UniProt Q9HAU5: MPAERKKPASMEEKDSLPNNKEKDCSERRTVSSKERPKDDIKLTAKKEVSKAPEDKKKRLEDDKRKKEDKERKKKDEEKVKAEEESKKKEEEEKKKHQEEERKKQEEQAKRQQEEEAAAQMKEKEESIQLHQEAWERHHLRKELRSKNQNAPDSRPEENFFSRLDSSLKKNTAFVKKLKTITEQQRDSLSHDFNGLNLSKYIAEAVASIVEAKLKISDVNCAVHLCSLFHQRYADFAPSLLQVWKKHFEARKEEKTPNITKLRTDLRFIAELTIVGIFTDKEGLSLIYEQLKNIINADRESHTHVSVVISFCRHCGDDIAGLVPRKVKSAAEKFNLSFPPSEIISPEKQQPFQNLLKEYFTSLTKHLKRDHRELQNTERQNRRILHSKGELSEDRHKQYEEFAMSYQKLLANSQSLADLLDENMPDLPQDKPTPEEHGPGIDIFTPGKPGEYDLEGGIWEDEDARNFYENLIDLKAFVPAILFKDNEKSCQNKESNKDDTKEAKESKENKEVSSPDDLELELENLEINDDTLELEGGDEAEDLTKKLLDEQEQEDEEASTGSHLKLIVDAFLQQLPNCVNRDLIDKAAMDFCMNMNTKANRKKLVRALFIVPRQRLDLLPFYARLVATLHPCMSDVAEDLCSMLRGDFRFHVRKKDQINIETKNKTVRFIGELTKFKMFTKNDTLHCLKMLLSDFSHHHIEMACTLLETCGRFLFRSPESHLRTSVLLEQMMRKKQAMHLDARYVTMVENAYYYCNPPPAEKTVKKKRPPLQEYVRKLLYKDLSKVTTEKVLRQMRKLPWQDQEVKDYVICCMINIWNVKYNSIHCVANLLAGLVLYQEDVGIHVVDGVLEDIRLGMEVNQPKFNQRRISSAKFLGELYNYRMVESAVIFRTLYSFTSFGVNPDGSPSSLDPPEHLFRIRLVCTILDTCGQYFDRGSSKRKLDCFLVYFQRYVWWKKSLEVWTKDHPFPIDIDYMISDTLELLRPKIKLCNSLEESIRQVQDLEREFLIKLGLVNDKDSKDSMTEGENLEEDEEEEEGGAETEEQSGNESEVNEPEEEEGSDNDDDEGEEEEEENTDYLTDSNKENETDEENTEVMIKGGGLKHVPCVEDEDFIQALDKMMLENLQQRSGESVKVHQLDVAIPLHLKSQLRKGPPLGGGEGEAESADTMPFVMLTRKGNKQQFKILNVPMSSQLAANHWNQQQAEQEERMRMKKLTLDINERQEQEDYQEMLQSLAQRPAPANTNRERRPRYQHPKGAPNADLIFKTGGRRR

binding: binds
Substance: UPF2 (endogenous, HCT116 3DKO cells) (from UniProt Q9HAU5 1-1272)

Reference: publication doi:10.1101/2021.07.02.450872
